# PubChem BioAssay AID652272 – Drosophila RNAi Screening Center, 2013
# Aim: 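Genome-wide knock-down search for components of Hedgehog signalling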 (primary screen)
# Cell system: Drosophila clone 8 (Cl8) cells
# Reagents: long dsRNA against Drosophila genes
# Measured: 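Firefly light from a Hedgehog-responsive ptc promoter reporter and Renilla reference light, both read on a plate reader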
# Scale: firefly Hh reporter signal: higher = more ptc reporter light; Renilla reference signal: higher = more Renilla control light
# Active means: 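Hit when the z-score averaged over two replicates is under -2 or over +3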
# Calls: active = hit: reporter lowered or raised; inactive = not a hit
# The screen tested about 21,000 reagents; below is an unselected part of those that have a named target and a result. Over the whole deposit, 503 (2.4%) got an active call. 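Raw plate light values, not normalised; calls rest on replicate z-scores that were not deposited; hits include reporter decreases as well as increases.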 Entries without a mark were called inactive. A plus sign joins genes that one reagent is predicted to hit. Not given: the amount of reagent, the time to read-out.
Target gene,amplicon,"firefly Hh reporter signal, replicate 1","firefly Hh reporter signal, replicate 2","firefly Hh reporter signal, replicate 3","Renilla reference signal, replicate 1","Renilla reference signal, replicate 2"
CG4438,DRSC02746,85569,37700,,2615,5152
CG8008,DRSC07053,63385,58573,,3008,1948
CG13540,DRSC04182,75724,36660,,946,3665
Mal-A8,DRSC07234,90651,46019,,1715,3644
CG18808,DRSC08539,52321,53350,,6101,4108
SAK,DRSC11879,84422,69899,,2881,1972
Nepl9,DRSC02255,98205,56327,,2517,4960
CG43327 + CG43328,DRSC05640,87915,1.92e5,,2614,7984
fax,DRSC11345,42880 (active),32810,,3152,2183
Ssl1,DRSC11634,1.51e5,1.04e5,,4867,3544
Nup214,DRSC04421,98352,74237,,5209,3795
Tsp42Ek,DRSC06187,96948,50300,,2296,4016
Sbds,DRSC10992,65881,68085,,3280,2778
CG2291,DRSC06836,87629,51879,,2134,3802
CG8476,DRSC16426,70736,84440,,2164,2169
nsl1,DRSC15625,85730 (active),63616,,1139,689
CG14391,DRSC14850,82656,1.24e5,,2549,3480
pain,DRSC04273,91693,36096,,2208,3056
CG5342,DRSC15776,75014,1.16e5,,2579,6067
scaf,DRSC04849,94866,77685,,3712,2946
mAcon1,DRSC01853,70240,55495,,1997,5283
CG13994,DRSC02326,1.17e5,68135,,3223,6681
Prx6a,DRSC00565,79254,96137,,3868,3926
CG3199,DRSC15467,90363,1.05e5,,2556,2390
CG8850,DRSC07287,1.23e5,56053,,3543,4598
Spase25,DRSC19776,1.06e5,82596,,2544,1995
S6KL,DRSC19349,1.52e5,1.32e5,,3736,3542
alpha-PheRS,DRSC18224,64585,66412,,1376,1944
CG34288,DRSC13564,1872,2.35e5,,384,4262
kmg,DRSC02829,1.30e5,43067,,3251,4038
CG32391,DRSC08865,1.22e5,2.50e5,,3184,9552
GNBP2,DRSC10404,94997,51973,,3667,1428
Ass + CG31286,DRSC12493,67812,82928,,2640,2454
CG13721,DRSC08330,68658,62691,,6752,5356
Adk2,DRSC09827,1.11e5,55409,,4400,1466

Targets above whose gene name starts with S or s:
Target gene,amplicon,"firefly Hh reporter signal, replicate 1","firefly Hh reporter signal, replicate 2","firefly Hh reporter signal, replicate 3","Renilla reference signal, replicate 1","Renilla reference signal, replicate 2"
SAK,DRSC11879,84422,69899,,2881,1972
Ssl1,DRSC11634,1.51e5,1.04e5,,4867,3544
Sbds,DRSC10992,65881,68085,,3280,2778
scaf,DRSC04849,94866,77685,,3712,2946
Spase25,DRSC19776,1.06e5,82596,,2544,1995
S6KL,DRSC19349,1.52e5,1.32e5,,3736,3542

More results:
Target gene,amplicon,"firefly Hh reporter signal, replicate 1","firefly Hh reporter signal, replicate 2","firefly Hh reporter signal, replicate 3","Renilla reference signal, replicate 1","Renilla reference signal, replicate 2"
CG14562,DRSC11723,1.00e5,1.33e5,,3408,3674
CG11000,DRSC12082,1.97e5,,,4228,
CG11000,DRSC12158,52195,1.31e5,,1933,3676
CG3448,DRSC10368,47170,45507,57604,5052,4485
fabp + sea,DRSC16114,1.04e5,1.04e5,,4081,3826
fabp + sea,DRSC16115,1.26e5,1.42e5,,5297,5274
SH3PX1,DRSC11139,30176,56981,44736,5931,3156
to,DRSC17086,5.96e5,1.06e5,,26819,3217
CG34427,DRSC09978,36964,63728,,4528,3990
Gcna,DRSC18553,1.83e5,1.08e5,,4444,3316
CG31268,DRSC13203,50947,1.67e5,,8589,2743
Pop1,DRSC17739,1.23e5,1.02e5,,2839,2693
CG14440,DRSC17933,45776,1.47e5,,1664,6166
rno,DRSC08584,1.29e5,65287,,3936,4085
Trf5,DRSC00412,1.07e5,90492,,2391,2155
wus,DRSC20278,87171,75467,,1531,1846
Klp67A,DRSC11205,60458,48982,62752,4180,5218
CG31778,DRSC00283,1.09e5,1.04e5,,3824,4598
DptA,DRSC07404,1.38e5,43498,,3338,2554
tho2,DRSC00646,53772,55139,,3152,3016
mspo,DRSC07652,1.02e5,55419,,2346,3931
CG4949,DRSC19926,1.18e5,1.36e5,,2800,2861
